Reference: PubChem BioAssay AID1508597 (Cure First, 2020)

Test: 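Genes whose silencing sensitises or protects ovarian cancer cells against rucaparib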 (primary screen)
Cells: human ovarian carcinoma lines grown from tumours: OCI-P5x (papillary serous) and OCI-C5x (clear cell)
Knock-down reagent: siRNA pool against human genes, 1.25 pmol siRNA per well
Timing: 72 h or 96 h, depending on the cell culture
Challenge: rucaparib 20 µM (about IC30) or vehicle, present until read-out
Measurement: 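ATP luminescence measured at 72 or 96 h according to the culture, then normalised and expressed as percent viability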
Direction: viability, normalised: higher = more viable cells remaining
Active means: 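Active when normalised viability falls below 80 percent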
Meaning of the calls: active = viability under 80%; inactive = viability 80% or more
Shown is one part, drawn at random, of about 2,100 reagents. 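Calls flag viability under 80% in either arm, not effects specific to rucaparib; the reference for percent is not stated.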 Not stated in the record: the 100% reference.

gene	rucaparib or vehicle	cell line	technical replicate	viability, normalised (%)	Call
SMARCA5 (GeneID 8467)	Rucaparib	OCI-C5x (clear cell)	1	61	active
SMARCA5 (GeneID 8467)	Rucaparib	OCI-C5x (clear cell)	2	47.9	active
SMARCA5 (GeneID 8467)	Rucaparib	OCI-C5x (clear cell)	3	54.3	active
SMARCA5 (GeneID 8467)	Rucaparib	OCI-P5x (serous)	1	51.7	active
SMARCA5 (GeneID 8467)	Rucaparib	OCI-P5x (serous)	2	57.2	active
SMARCA5 (GeneID 8467)	Rucaparib	OCI-P5x (serous)	3	44.4	active
SMARCA5 (GeneID 8467)	Vehicle	OCI-C5x (clear cell)	1	60.7	active
SMARCA5 (GeneID 8467)	Vehicle	OCI-C5x (clear cell)	2	51	active
SMARCA5 (GeneID 8467)	Vehicle	OCI-C5x (clear cell)	3	53.2	active
SMARCA5 (GeneID 8467)	Vehicle	OCI-P5x (serous)	1	58.3	active
SMARCA5 (GeneID 8467)	Vehicle	OCI-P5x (serous)	2	41.7	active
SMARCA5 (GeneID 8467)	Vehicle	OCI-P5x (serous)	3	62.9	active
PRDM11 (GeneID 56981)	Rucaparib	OCI-C5x (clear cell)	1	52.2	active
PRDM11 (GeneID 56981)	Rucaparib	OCI-C5x (clear cell)	2	56.6	active
PRDM11 (GeneID 56981)	Rucaparib	OCI-C5x (clear cell)	3	47	active
PRDM11 (GeneID 56981)	Rucaparib	OCI-P5x (serous)	1	42.4	active
PRDM11 (GeneID 56981)	Rucaparib	OCI-P5x (serous)	2	45.8	active
PRDM11 (GeneID 56981)	Rucaparib	OCI-P5x (serous)	3	37.9	active
PRDM11 (GeneID 56981)	Vehicle	OCI-C5x (clear cell)	1	40.6	active
PRDM11 (GeneID 56981)	Vehicle	OCI-C5x (clear cell)	2	40.7	active
PRDM11 (GeneID 56981)	Vehicle	OCI-C5x (clear cell)	3	36.7	active
PRDM11 (GeneID 56981)	Vehicle	OCI-P5x (serous)	1	45	active
PRDM11 (GeneID 56981)	Vehicle	OCI-P5x (serous)	2	48.3	active
PRDM11 (GeneID 56981)	Vehicle	OCI-P5x (serous)	3	59.6	active
